# Data: PubChem BioAssay (NCATS)
# Protein sequences, listed by entry. Tags and fused reporters are not part of them. Lines headed by an entry give the natural chain unless they say otherwise; changes in a name come on top.
# UniProt Q8WZA2: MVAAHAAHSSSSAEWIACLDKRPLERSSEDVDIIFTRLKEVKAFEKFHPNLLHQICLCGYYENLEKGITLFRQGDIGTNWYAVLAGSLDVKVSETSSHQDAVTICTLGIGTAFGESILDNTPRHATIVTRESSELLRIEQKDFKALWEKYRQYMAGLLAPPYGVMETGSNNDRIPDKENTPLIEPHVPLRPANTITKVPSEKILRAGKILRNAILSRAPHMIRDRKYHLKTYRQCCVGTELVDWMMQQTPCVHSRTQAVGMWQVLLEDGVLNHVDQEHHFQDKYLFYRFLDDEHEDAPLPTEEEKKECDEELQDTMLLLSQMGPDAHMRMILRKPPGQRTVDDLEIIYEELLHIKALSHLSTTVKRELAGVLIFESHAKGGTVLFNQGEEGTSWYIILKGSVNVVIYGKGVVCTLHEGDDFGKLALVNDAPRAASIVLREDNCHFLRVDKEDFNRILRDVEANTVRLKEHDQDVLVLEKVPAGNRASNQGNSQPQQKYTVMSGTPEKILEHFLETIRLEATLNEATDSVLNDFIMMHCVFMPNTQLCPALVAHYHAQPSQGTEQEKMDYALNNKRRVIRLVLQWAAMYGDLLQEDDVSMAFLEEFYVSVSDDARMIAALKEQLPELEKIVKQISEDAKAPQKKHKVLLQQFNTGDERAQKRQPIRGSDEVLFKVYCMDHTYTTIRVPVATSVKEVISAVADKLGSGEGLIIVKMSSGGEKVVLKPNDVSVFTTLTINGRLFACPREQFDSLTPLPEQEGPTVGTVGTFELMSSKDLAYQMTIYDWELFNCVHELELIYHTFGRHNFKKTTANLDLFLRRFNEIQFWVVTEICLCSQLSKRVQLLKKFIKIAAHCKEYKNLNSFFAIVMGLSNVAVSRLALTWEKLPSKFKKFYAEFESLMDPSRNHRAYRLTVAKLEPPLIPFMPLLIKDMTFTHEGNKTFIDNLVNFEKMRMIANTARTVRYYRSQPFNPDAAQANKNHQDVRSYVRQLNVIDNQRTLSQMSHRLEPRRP
# UniProt P10275: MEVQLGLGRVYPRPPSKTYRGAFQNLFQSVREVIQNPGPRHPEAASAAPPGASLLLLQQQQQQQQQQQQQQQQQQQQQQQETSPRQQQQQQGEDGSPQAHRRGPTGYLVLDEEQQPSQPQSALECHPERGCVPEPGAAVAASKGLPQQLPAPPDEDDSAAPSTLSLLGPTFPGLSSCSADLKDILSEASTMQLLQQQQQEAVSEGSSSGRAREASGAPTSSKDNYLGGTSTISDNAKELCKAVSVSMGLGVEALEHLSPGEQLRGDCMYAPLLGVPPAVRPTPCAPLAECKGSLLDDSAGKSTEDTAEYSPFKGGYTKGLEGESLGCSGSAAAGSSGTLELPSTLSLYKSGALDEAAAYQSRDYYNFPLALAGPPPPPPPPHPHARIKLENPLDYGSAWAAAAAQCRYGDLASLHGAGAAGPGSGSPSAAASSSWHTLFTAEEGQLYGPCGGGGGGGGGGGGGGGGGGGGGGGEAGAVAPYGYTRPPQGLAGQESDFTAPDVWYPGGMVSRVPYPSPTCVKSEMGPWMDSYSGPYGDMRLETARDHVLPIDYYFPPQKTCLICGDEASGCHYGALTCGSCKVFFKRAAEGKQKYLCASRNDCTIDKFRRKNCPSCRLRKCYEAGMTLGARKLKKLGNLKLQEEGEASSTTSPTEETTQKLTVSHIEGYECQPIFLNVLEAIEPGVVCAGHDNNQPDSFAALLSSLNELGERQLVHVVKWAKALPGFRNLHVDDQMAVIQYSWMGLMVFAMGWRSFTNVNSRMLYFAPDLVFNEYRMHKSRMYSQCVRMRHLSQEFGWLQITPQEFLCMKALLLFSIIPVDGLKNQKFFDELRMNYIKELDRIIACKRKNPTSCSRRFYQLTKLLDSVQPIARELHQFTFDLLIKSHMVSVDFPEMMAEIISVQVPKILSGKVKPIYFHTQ
# UniProt P35557, whole entry, looked up: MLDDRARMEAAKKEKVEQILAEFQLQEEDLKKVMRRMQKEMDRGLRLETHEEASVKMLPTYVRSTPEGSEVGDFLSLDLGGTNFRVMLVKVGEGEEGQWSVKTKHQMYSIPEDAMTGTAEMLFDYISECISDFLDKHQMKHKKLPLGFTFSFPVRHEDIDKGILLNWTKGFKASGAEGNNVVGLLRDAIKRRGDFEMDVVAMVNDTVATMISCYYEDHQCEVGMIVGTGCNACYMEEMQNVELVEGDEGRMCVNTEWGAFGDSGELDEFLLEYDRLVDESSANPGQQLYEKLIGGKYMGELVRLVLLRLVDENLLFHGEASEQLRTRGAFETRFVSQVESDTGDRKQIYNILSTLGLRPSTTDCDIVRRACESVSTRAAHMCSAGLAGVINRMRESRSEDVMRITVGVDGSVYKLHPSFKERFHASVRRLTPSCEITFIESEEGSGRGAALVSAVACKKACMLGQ
# UniProt Q14397: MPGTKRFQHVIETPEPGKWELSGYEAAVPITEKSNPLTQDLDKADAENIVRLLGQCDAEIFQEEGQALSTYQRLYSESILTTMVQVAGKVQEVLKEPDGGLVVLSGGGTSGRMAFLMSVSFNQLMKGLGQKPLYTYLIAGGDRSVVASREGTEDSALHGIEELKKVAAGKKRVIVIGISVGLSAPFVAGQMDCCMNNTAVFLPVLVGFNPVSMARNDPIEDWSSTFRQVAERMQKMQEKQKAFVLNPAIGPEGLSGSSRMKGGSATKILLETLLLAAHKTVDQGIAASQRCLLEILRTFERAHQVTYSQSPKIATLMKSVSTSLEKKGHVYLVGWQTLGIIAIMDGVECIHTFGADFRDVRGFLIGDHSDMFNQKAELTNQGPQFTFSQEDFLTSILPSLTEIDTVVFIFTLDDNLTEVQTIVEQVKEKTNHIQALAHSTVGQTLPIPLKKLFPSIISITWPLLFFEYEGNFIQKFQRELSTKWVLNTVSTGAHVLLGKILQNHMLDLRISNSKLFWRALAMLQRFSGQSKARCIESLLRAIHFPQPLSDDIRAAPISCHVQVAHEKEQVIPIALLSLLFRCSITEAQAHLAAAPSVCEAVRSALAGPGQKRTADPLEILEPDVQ
# UniProt O89049, whole entry, looked up: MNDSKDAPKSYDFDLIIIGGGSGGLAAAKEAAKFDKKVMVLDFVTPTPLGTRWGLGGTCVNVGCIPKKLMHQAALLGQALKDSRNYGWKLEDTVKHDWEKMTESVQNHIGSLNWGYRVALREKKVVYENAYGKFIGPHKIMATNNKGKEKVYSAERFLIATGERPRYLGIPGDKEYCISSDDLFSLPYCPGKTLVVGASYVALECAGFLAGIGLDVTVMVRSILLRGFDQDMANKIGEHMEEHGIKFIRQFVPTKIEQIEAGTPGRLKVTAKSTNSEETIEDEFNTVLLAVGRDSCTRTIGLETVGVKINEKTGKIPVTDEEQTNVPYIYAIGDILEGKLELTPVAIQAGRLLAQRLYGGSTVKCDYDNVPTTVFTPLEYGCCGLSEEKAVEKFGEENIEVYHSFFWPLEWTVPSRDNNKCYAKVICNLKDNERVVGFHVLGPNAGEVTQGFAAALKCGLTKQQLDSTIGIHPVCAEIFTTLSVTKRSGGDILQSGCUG
# UniProt P00784: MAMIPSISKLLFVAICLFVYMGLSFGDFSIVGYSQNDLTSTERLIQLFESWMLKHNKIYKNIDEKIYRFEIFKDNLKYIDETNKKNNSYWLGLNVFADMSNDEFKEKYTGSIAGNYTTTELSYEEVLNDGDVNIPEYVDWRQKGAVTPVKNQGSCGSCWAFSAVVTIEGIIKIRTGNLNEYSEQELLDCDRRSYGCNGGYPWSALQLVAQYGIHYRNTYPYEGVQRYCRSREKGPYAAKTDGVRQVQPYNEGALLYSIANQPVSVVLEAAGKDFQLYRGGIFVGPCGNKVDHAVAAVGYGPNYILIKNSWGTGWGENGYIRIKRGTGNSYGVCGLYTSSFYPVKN
# UniProt P33261, whole entry, looked up: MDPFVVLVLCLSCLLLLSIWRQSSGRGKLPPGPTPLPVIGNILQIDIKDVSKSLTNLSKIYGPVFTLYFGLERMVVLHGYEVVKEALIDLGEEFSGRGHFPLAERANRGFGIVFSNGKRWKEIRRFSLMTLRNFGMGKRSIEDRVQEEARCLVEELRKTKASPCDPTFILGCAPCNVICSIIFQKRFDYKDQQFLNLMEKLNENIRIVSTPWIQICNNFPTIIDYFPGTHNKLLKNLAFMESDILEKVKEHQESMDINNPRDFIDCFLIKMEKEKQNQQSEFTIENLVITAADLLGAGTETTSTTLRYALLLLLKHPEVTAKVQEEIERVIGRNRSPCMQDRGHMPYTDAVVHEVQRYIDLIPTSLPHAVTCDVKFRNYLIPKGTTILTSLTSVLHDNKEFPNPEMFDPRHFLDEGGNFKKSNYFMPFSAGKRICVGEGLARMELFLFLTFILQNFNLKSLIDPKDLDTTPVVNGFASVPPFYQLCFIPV
# UniProt P08684, whole entry, looked up: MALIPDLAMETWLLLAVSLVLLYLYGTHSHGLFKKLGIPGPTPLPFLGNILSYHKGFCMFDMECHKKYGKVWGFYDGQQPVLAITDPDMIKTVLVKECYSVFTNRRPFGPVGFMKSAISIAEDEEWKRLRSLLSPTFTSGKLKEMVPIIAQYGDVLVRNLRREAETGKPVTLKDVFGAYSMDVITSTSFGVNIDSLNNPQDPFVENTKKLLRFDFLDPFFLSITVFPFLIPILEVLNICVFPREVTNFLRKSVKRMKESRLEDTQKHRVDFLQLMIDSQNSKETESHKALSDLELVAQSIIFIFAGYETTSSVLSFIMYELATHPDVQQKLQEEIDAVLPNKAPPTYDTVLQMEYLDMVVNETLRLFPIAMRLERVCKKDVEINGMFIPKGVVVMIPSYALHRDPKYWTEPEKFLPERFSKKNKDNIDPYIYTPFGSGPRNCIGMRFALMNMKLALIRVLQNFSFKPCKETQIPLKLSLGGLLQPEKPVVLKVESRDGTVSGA
# UniProt P46063: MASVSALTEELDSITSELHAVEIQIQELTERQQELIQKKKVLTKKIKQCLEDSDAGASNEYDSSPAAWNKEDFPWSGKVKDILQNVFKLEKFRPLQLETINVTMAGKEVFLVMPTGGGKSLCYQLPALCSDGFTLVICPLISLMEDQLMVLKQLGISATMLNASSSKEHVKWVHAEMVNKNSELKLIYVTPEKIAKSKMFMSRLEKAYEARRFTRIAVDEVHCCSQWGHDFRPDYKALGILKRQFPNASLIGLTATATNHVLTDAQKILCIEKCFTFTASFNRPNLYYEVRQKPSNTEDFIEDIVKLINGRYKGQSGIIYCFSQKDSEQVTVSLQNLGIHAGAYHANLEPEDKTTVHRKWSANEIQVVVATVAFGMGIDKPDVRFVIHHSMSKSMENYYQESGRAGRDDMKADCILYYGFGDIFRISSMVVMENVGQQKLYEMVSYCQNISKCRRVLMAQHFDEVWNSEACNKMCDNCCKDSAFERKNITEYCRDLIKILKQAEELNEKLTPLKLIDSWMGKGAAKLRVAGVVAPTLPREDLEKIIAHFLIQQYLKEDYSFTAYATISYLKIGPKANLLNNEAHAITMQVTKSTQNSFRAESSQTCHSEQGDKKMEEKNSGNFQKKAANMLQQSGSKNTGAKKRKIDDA
# UniProt P04150: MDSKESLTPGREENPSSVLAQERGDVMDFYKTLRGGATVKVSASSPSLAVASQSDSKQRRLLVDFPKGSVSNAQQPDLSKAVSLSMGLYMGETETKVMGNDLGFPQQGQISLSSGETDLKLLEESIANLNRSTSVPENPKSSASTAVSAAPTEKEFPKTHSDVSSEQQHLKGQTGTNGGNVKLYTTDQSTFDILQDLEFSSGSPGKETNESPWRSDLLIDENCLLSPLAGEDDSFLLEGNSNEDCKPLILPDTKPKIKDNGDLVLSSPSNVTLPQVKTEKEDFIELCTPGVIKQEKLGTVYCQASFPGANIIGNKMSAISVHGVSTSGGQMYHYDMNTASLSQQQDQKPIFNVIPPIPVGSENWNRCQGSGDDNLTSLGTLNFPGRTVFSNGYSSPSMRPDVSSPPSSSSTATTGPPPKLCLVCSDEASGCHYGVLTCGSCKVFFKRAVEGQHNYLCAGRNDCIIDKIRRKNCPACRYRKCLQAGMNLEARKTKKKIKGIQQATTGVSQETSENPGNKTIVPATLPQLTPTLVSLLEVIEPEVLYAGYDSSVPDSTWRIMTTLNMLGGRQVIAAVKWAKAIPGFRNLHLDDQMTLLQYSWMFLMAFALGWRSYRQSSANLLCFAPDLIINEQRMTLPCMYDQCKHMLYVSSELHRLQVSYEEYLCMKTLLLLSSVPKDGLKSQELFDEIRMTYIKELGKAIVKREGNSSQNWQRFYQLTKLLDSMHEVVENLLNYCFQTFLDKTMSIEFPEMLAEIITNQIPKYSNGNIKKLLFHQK
# UniProt Q99828: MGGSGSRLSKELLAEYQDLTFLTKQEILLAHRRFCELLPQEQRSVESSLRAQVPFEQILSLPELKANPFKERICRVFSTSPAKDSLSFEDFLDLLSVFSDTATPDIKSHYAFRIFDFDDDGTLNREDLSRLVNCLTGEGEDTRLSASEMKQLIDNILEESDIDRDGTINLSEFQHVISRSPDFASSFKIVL
# Inconclusive results, whose numbers are uncertain, are shown with a selection of clear calls. For some assays here: Where the call is inconclusive, the potency comes from a doubtful curve fit. The source made the active and inactive calls. Unless noted, the call rests on the fitted dose curve; in most records, active means well fitted curve in the direction sought with a large enough effect; inconclusive means small, poorly fitted or top-dose-only effect, or another doubt; inactive means no such curve, though single readings can be large; an effect the other way counts as inactive or inconclusive.
# Experiments:
# [1] = Cell Viability - LYMP1-002 - Assay at 40 hr (AID 994);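 further: 0% = DMSO only and full inhibition = 92 µM tetraoctylammonium bromide; nearly all actives have a fitted effect of over 60% in size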
# Outline: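 Cytotoxicity was read as loss of cellular ATP (CellTiter-Glo luminescence) after 40 hr compound exposure at 37 C of 2500 LYMP1-002 lymphoblastoid cells per well. Concentration-response data were fitted with the standard Hill equation to give AC50.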
# [2] = test system: Zika virus NS2B-NS3 protease (linked); assay: 384 well plate NINDS AMC confirmatory qHTS for Zika virus inhibitors (AID 1347163);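 further: linked protease at 5 30 or 60 nM final depending on run; fluorescence of AMC released from Ac-VKTGKR-AMC peptide cleaved by the protease; top concentration of the series differs between compounds; 0% = no-inhibitor control and -100% = no-enzyme control; nearly all actives have a fitted effect of over 50% in size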
# Outline: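 Fluorescence at 355/460 nm was read after 25 minutes of cleavage of 30 microM Ac-VKTGKR-AMC at room temperature, in the dark. Before substrate addition, compounds (up to 1 mM final) sat ~15 minutes with 5, 30 or 60 nM linked protease. Signals were normalized to no-enzyme and no-inhibitor wells.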
# [3] = biological target: Rap guanine nucleotide exchange factor 4 (Homo sapiens) (UniProt Q8WZA2); assay: Confirmatory qHTS for agonist of cAMP-regulated guanine nucleotide exchange factor 4 (EPAC2) (AID 1645884);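 further: nucleotide exchange releases bodipy-GDP from Rap1 and this lowers its fluorescence; potency means the concentration at half of the fitted maximal effect; nearly all actives have a fitted effect of over 65% in size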
# [4] = qHTS Assay for Modulators of Human Peripheral Myelin Protein 22 (PMP22) Expression/Activity (AID 1967; active means well fitted curve in the direction sought with a large enough effect in the signal ratio; inconclusive means small, poorly fitted or top-dose-only effect, or effect the other way, or a change in a side signal; inactive means no such curve, though single readings can be large or run the other way; the % refers to the signal ratio; further: potency means the concentration at half of the fitted maximal effect); conditions: Cell-based PMP22 reporter, dual-color luciferase ratio, mouse Pmp22 promoter in mouse Schwann cells; activity change (ratio): at 115 µM (top of the series), 0% = compound-free control cells
# Outline: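 MSC80 mouse Schwann cells stably carrying Pmp22 promoter–green click beetle luciferase plus EF-alpha–red luciferase control were dosed for 24h at 37 °C. Dual-colour luminescence was filter-overlap corrected; %Activity came from green/red ratio versus untreated cells.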
# [5] = Cytometric Cell-Based qHTS for Inhibitors of the mTORC1 Signaling Pathway in MEF (Tsc2-/-, p53-/-) Cells (AID 2660);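 further: Tsc2 and p53 null MEFs carrying empty vector with compound for 24 h; percent of cells above a phospho-rpS6 to PI ratio cutoff in each well; plate controls were DMSO for no effect and rapamycin for full effect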
# Outline: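 Percent of cells positive for normalized phospho-S6 staining is reported, with the cutoff set from rapamycin (7.5 nM) versus DMSO wells. Tsc2-/-, p53-/- MEFs received compound for 24 hrs.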
# [6] = qHTS Validation Assay to Find Inhibitors of Chronic Active B-Cell Receptor Signaling (AID 485345; active means well fitted curve in the direction sought with a large enough effect in the main read-out, with a control signal flat, not every such curve was filed as active; inconclusive means small, poorly fitted or top-dose-only effect, or effect the other way, or a change in a side signal; inactive means no such curve, though single readings can be large or run the other way;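 further: 0% = untreated basal cells and 100% = 10 µM MG-132 proteasome inhibitor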); conditions: ABC-DLBCL cells, chronic BCR signaling reporter; activity change: CBG luciferase, at 46.1 µM (top of the series)
# Outline: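 Read-out: ratio of filter-corrected green (IkappaBalpha fusion) to red (native) luciferase signal in doxycycline-induced TMD8 cells after 4 h at 37C. Titration spanned 46 uM–3 nM; Data were normalised to basal cells and 10 uM MG-132 wells.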
# [7] = biological target: Androgen receptor (Homo sapiens) (UniProt P10275); assay: qHTS assay for small molecule agonists of androgen receptor signaling (AID 588515; active means well fitted curve in the direction sought with a large enough effect in the signal ratio, with a control signal flat; inconclusive means small, poorly fitted or top-dose-only effect, or effect the other way, or a change in a side signal; inactive means no such curve, though single readings can be large or run the other way; the % refers to the signal ratio; further: on the % scale 0 is the no-effect control and ±100 the full control effect); conditions: AR-UAS-bla HEK293, beta-lactamase ratio, agonist 16 h; activation: hits give high values
# Outline: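 Stimulation of an AR-responsive β-lactamase reporter in GripTite HEK293 cells was measured after 16 h compound exposure at 37 °C, via CCF4 fluorescence after 2 h RT. EC50 from Hill fits, normalized to R1881 at 30 nM.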
# [8] = biological target: Androgen receptor (Homo sapiens) (UniProt P10275); assay: qHTS assay for small molecule antagonists of androgen receptor signaling (AID 588516; active means well fitted curve in the direction sought with a large enough effect in the signal ratio, with a control signal flat, not every such curve was filed as active; inconclusive means small, poorly fitted or top-dose-only effect, or effect the other way, or a change in a side signal; inactive means no such curve, though single readings can be large or run the other way; the % refers to the signal ratio; further: potency means the concentration at half of the fitted maximal effect); conditions: AR-UAS-bla HEK293, beta-lactamase ratio, antagonist mode, 16 h; activity change, negative = inhibition: at 76.8 µM (top of the series)
# Outline: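 Cells were plated and incubated 5 h, compounds added in titration, then R1881 (10 nM final) as agonist. After 16 h at 37 C, CCF4 substrate was loaded for 2 h at room temperature and fluorescence measured.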
# [9] = biological target: Hexokinase-4 (Homo sapiens) + Glucokinase regulatory protein (Homo sapiens) (UniProt P35557+Q14397); assay: qHTS assay for inhibitors of recombinant human GCK-GKRP interaction: HTRF assay (AID 743207); conditions: recombinant GCK-GKRP HTRF binding, 60 min; Potency: with sorbitol-6-phosphate unless noted; activity change, negative = inhibition: at 57.5 µM (top of the series), with sorbitol-6-phosphate unless noted; further: potency means the concentration at half of the fitted maximal effect
# Outline: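 GST-GCK and FLAG-GKRP (5 nM each) were combined with 2 uM S6P in pH 7.1 Hepes/MgCl2/KCl/DTT buffer, then compound and anti-FLAG XL665/anti-GST K antibodies were added. After 60 min at room temperature, HTRF 665/615 nm emission was read.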
# [10] = Natriuretic polypeptide receptor (hNpr1) antagonism - Pilot counterscreen GloSensor control cell line (AID 1347045; calls by dose curve; further: on the % scale 0 is the no-effect control and ±100 the full control effect)
# Outline: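 Control counterscreen: luciferase cGMP-biosensor HEK293 cells (no Npr1) received compound for 30 min at room temperature after GloSensor substrate loading. Luminescence was measured before and 20 min after soluble guanylyl cyclase activation by 50 uM nitroprusside.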
# [11] = biological target: Thioredoxin reductase 1, cytoplasmic (Rattus norvegicus) (UniProt O89049); assay: qHTS Assay for Inhibitors of Mammalian Selenoprotein Thioredoxin Reductase 1 (TrxR1) (AID 488773); conditions: Potency: inhibition; further: potency means the concentration at half of the fitted maximal effect; nearly all actives have a fitted effect of over 40% in size
# Outline: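 Inhibition is scored from the loss of NADPH fluorescence between first and last reads of an 8-min kinetic run. Selenite (400 uM) was the substrate, added after 15 min compound preincubation at room temperature.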
# Papain (Carica papaya) = Papain (Carica papaya) (UniProt P00784); assay: Primary qHTS assay for inhibitors of the protease papain (AID 1645873);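 further: papain turnover of Z-FR-AMC read as the AMC fluorescence gain over 10 min; potency means the concentration at half of the fitted maximal effect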
# [12] = biological target: Cytochrome P450 2C19 (Homo sapiens) (UniProt P33261); assay: qHTS Assay for Inhibitors and Substrates of Cytochrome P450 2C19 (AID 899); conditions: recombinant CYP2C19, luciferin-H EGE luminescence; activity, negative = inhibition: at 57.1 µM (top of the series); further: on the % scale 0 is the no-effect control and ±100 the full control effect; nearly all actives have a fitted effect of over 60% in size
# Outline: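 5nM enzyme + 10uM Luciferin-H EGE (=KM), 50mM KPO4; cpd pin-transferred, 10 min 37C; NADPH regen, 60 min 37C; stopped w/ luciferin detection reagent, 20 min; luminescence. Normalized to 57uM ketoconazole (AC100).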
# [13] = biological target: Cytochrome P450 3A4 (Homo sapiens) (UniProt P08684); assay: qHTS Assay for Activators of Cytochrome P450 3A4 (AID 885); further: nearly all actives have a fitted effect of over 65% in size
# Outline: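 Using 20nM recombinant human CYP3A4 in potassium phosphate (200mM), substrate Luciferin-PPXE at 25uM, luminescent luciferin detection followed a 60-min RT NADPH reaction; data scaled to 57 uM ketoconazole.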
# [14] = biological target: DNA repair nuclease/redox regulator APEX1 (Homo sapiens) (UniProt P27695); assay: qHTS Validation Assay for Inhibitors of the Human Apurinic/apyrimidinic Endonuclease 1 (APE1) (AID 1705; further: potency means the concentration at half of the fitted maximal effect)
# Outline: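 Human APE1 was preincubated with compound for 15 min at room temperature, then 50 nM (final) THF-abasic double-stranded DNA substrate bearing 5'-TAMRA and 3'-BHQ-2 was added. Incision-driven fluorescence rise (ex 525/em 598 nm) was read kinetically.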
# [15] = biological target: ATP-dependent DNA helicase Q1 (Homo sapiens) (UniProt P46063); assay: qHTS Validation Assay for Inhibitors of RecQ-Like Dna Helicase 1 (RECQ1) (AID 2353); further: potency means the concentration at half of the fitted maximal effect
# Outline: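 RECQ1T1 50 nM; forked duplex (20 bp + 30-nt ss tails) 200 nM, ATP 2 mM final; pH 8.0, 2 mM MgCl2, 2.5 ug/ml poly(dI-dC); 15 min compound preincubation; discontinuous kinetic read over 2 h at RT.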
# [16] = biological target: Endonuclease 4 (Escherichia coli (strain K12)) (UniProt P0A6C1); assay: Counterscreen for APE1 Inhibitors: qHTS Assay for Inhibitors of Endonuclease IV (AID 2565); further: potency means the concentration at half of the fitted maximal effect; conditions: E. coli Endo IV, fluorogenic AP-site DNA cleavage
# Outline: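 Incision of a double-stranded 50 nM TAMRA/BHQ-2 abasic substrate was followed kinetically (525/598 nm, reads every 60 s) after 15 min enzyme–compound preincubation with 2 nM EndoIV in pH 7.5 Tris buffer with MgCl2, DTT and Tween-20; concentration-response format.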
# [17] = biological target: Glucocorticoid receptor (Homo sapiens) (UniProt P04150); assay: GR-GFP Redistribution (AID 450;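 active means compounds whose dose series gives a full or clear partial fitted curve of increased nuclear translocation; inconclusive means weak partial curve or effect only at the top dose; inactive means no dose-dependent translocation response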; further: potency means the concentration at half of the fitted maximal effect); conditions: U2OS GR-GFP nuclear translocation, laser cytometry, 2 h
# [18] = test system: Nanoluciferase (engineered Oplophorus gracilirostris luciferase); assay: Primary Nanoluciferase (NLuc) qHTS assay for identification of artifact compounds. (AID 1845222); further: potency means the concentration at half of the fitted maximal effect
# Outline: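 Compounds are pinned into diluted (1:55) conditioned medium of NLuc-expressing S16 cells and held 15 min at room temperature protected from light. Nano-Glo substrate follows, and luminescence is read 5 min later.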
# [19] = biological target: Calcium and integrin-binding protein 1 (Homo sapiens) (UniProt Q99828); assay: Validation qHTS for Identification of Calcium Integrin Binding protein 1 (CIB1) Competitor (AID 1508618); further: on the % scale 0 is the no-effect control and ±100 the full control effect
# Outline: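 In this qHTS validation, the LOPAC set (up to 114 uM) was tested for blocking CIB1 binding to a fluorescein-tagged alphaIIb peptide, with FP detection at 480/540 nm.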
smiles,measurement,setting,value
CCCCNC(=O)NS(=O)(=O)c1ccc(C)cc1,Potency,[1],inactive
CCC(CC)(CC(=O)Nc1cccc(/C=C/c2nc(C3CCC3)cs2)c1)C(=O)O,Potency,[2],inactive
c1ccc(-c2ccc(C(c3ccccc3)n3ccnc3)cc2)cc1 (stereo not given),Potency,[3],"inconclusive: 998 nM [activator, partial curve, poor fit]"
C[C@]12CC[C@@H]3c4ccc(O)cc4CC[C@H]3[C@@H]1CCC2=O,Potency,[4],"inconclusive: 2.69 µM [activator, full curve, poor fit]"
same,Potency,[5],inactive
same,activity change,[6],inconclusive: -61.5%
same,activation,[7],inconclusive: 24.6%
same,Potency,[8],"inconclusive: 17.8 µM [inhibitor, partial curve, poor fit]"
same,Potency,[9],"inconclusive: 39.8 µM [inhibitor, single point]"
same,Potency,[10],inactive
CO[C@@]1(NC(=O)CSCC#N)C(=O)N2C(C(=O)O)=C(CSc3nnnn3C)CS[C@@H]21,Potency,[11],active: 21.2 µM
same,Potency,Papain (Carica papaya),"inconclusive: 35.5 µM [inhibitor, partial curve, poor fit]"
COc1ccc([C@@H]2CNC(=O)C2)cc1OC1CCCC1,Potency,[12],inactive
CC(Cc1cccc(C(F)(F)F)c1)NCCOC(=O)c1ccccc1 (stereo not given),Potency,[13],inactive
CC(=O)OCC1=C(C(=O)O)N2C(=O)[C@@H](NC(=O)CSc3ccncc3)[C@H]2SC1,Potency,[14],active: 8.91 µM
same,Potency,[15],"inconclusive: 11.2 µM [inhibitor, single point]"
same,Potency,[16],active: 15.8 µM
CC(=O)OCC[N+](C)(C)C,Potency,[17],inactive: > 20.6 µM
O=C(CCCCCCCCC#CI)Oc1ccccc1,Potency,[18],"inconclusive: 10.7 µM [inhibitor, partial curve]"
CC(=O)OC(C)C[N+](C)(C)C (stereo not given),Potency,[19],inactive

# Another view of some results above.
smiles	measurement	setting	value
C[C@]12CC[C@@H]3c4ccc(O)cc4CC[C@H]3[C@@H]1CCC2=O	Potency	[4]	inconclusive: 2.69 µM [activator, full curve, poor fit]
CC(=O)OCC[N+](C)(C)C	Potency	[17]	inactive: > 20.6 µM
